Data as given in article doi:10.1101/2025.03.27.645694.
These are yes or no findings as the source states them, for the method shown. Binding seen in cells or lysates may run through a third protein. Some results given as binding are weak or reduced against the parent protein; the word gives no strength. Tags and fused reporters may be left off the sequences shown.

T1: Actin-related protein M1 (ARPM1), HA-tagged (mouse) (UniProt Q8BXF8)
T1 sequence: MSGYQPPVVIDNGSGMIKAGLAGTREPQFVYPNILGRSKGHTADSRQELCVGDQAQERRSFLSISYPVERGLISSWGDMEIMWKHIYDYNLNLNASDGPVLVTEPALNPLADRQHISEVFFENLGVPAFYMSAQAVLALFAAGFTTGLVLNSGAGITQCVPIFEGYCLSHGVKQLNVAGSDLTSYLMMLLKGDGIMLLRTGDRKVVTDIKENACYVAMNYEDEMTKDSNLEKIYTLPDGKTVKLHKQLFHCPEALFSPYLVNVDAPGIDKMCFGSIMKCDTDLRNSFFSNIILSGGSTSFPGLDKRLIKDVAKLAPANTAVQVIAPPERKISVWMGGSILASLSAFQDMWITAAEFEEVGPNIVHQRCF

B1: Profilin 3 (PFN3), Myc-tagged (protein, UniProt Q9DAD6 1-137)
chain: MSDWKGYISAVLRDQRIDDVAIVGHSDNRCVWASRPGGLLAAISPQEVGVLTGPDRHTFLQTGLSVAGRRCCVIRDYLLAEGDGVLDARTKGLDGRAICVGHTPRALLVLMGRRGVHGGILNKTVHDLIGGLREQCS
B2: ACTRT1, Myc-tagged (protein, UniProt Q9D9J3 1-376)
chain: MLDPARLDNPAVIFDNGSGLCKVGISGEIEPRHVINSVVGHPKFNIPSARSNRKRYFVGEEAQCMYDGLYLHYPIERGLVTRWDDMEKLWKDLFEWELGVKPNEQPVFMTEPSLNPQETREKTTEIMFEKFNVPALYLCNHAVGALCASACITGLVLDSGDGVTCTVPVYEGYSLPHAITKLYVAGRDITEHLTRLLLAKGYTFPCILNKAVVDDIKEKLCTVSLGYKDTEKNCQQFLRKYTLPDGNTIQMSDHLCQVPEVLFTPDHLGIHDLGISKMVCNSIMNCDTDIQENLFAEIVLSGGTTMFPGLQDRLLKELEDLAFEGTPIKITASSDRCYSAWIGGSVMTSMTTFKQMWVTAEDFKEYGAFVVQRKCF
B3: ACTL7A, Myc-tagged (protein, UniProt Q9QY84 1-440)
chain: MSLDGVWAPQTANIGDGPAKKASDQASMQTQVLQTASLKDGPAKRAVWVRRDNAETEDPVKSTMSKDRPRLEVTKAVVVDLGTGFCKCGFAGLPKPTHKISTTVGKPYMETAKTGDNRKETFVGHELFNPDIHLKLVNPLRHGIIVDWDTVQDIWEYLFRQEMKIAPEEHAVLVSDPPLSPHTNREKYAEMLFETFNTPAMHIAYQSRLSMYSYGRTSGLVVEVGHGVSYVVPIYEGYPLPSITGRLDYAGSDLTTYLMNLMNNSGKHFSEDHLGIVEDIKTRCCFVALDPIEEKKIPAPEHEIHYTLPDGKEIRLGQERFLCSEMFFKPSLIKSMQLGLHTQTVSCLNKCDIALKRDLMGNILLCGGSTMLRGFPNRLQKELSSMCPNDTPQVNVLPERDTAVWTGGSILASLQGFQPLWVHRLEYEEHGPFFLYRRCF
B4: Zona pellucida binding protein (ZPBP), Myc-tagged (protein, UniProt Q62522 45-350)
chain: HLARLPRSIHLTQDSLKIVGSTHFPVSVYVMLHQKSPHVLCVTQRLRNTELVDPSFQWHGPKGKLVSENTTAQVTSTGSLIFQSFEETMSGVYTCFLEYKPTVEESIKNLQLKYIVYAYREPRFYYQFTARYHAAPCNSIYNISFEKKLLQILSKLVLDLSCEISLIKSECHRVKMQRAGLQNELFFTFSVASIDTEKGSKPCTDHSCEASKRLSKAKNLIERFFIQQVEVLGKRAEPLPEIYYIEGTLQMVWVNRCFPGYGINVLKHPKCPECCVVCSPGSFNPRDGTHCLQCNNSLVYGAKTCM
B5: SPEM2, Myc-tagged (protein, UniProt Q8C5U4 1-503)
chain: MENQLWQNTLRCCEQYQESPQDAENILFLLLGLIILVNISINVATAMWQGLQNAIDKMIFWMNQKTEVVQVTECPPKEPQPANVQDVHIHCILDPVQVKMAQPTQCSSSSSHYFCKRSNDRRSRRRYGYQQGNLQIHQSSQQQGCLSHQQRLRNRPLSRGYPPFRKQPQGHKMSQMRPMPFFDMEDRDSLPEGHSCPHAKQPRRGWGSLCKPVRLASNVGLWGRQGGILASLPLPSLYLSPELRRLPKRVEAKSELRLQGFGPHYSQSRIWGTVEAEQWASSPPPPRRLLPNPSWVTVGYSSFPSGGHIPYDARDQWRRGTEGCEPPPAFVPRNPREVQGYRDHNSQAHRQNFSSHTHSQPNHSPPQSMGHVGYSSRESHEVRRRAPDWIEVFPSRHPLTTSTSLTALGEASYQRAPPASSGLMIPHSSQRLAEVQISDPTPPPTTFVPLSRNPGGNATYQVYDSLELKRQVQENRGRASSLPPPSTSASRPSLHRSRTGKLN

Target: T1, Actin-related protein M1 (ARPM1), HA-tagged (mouse)
Experiment: co-IP

Binder | binding
B1 | binds
B2 | binds
B3 | binds
B4 | binds
B5 | no binding
